Measurements from article PMC3700849.
Positions count from the first letter of the chain named. These are yes or no findings as the source states them, for the method shown. In cells and extracts the contact can be indirect. A result given as binding can be weak or reduced; the word gives no strength.

B1: Intercellular adhesion molecule-2 wild type (ICAM-2 WT) (protein, UniProt P13598 25-275)
chain: KVFEVHVRPKKLAVEPKGSLEVNCSTTCNQPEVGGLETSLDKILLDEQAQWKHYLVSNISHDTVLQCHFTCSGKQESMNSNVSVYQPPRQVILTLQPTLVAVGKSFTIECRVPTVEPLDSLTLFLFRGNETLHYETFGKAAPAPQEATATFNSTADREDGHRNFSCLAVLDLMSRGGNIFHKHSAPKMLEIYEPVSDSQMVIIVTVVSVLLSLFVTSVLLCFIFGQHLRQQRMGTYGVRAAWRRLPQAFRP
modifications: N-glycosylated at asparagines 47, 82, 105, 153, 176 and 187
B2: ICAM-2 glycosylation site variant gsv1,4,5 (protein, UniProt P13598 25-275)
chain: B1 chain with N23A, N129A, N152A
modifications: not able to be glycosylated at 47, 153 and 176
B3: ICAM-2 glycosylation site variant gsv1,2,5 (protein, UniProt P13598 25-275)
chain: B1 chain with N23A, N58A, N152A
B4: ICAM-2 glycosylation site variant gsv4,5 (protein, UniProt P13598 25-275)
chain: B1 chain with N129A, N152A
B5: ICAM-2 glycosylation site variant gsv1-6 (protein, UniProt P13598 25-275)
chain: B1 chain with N23A, N58A, N81A, N129A, N152A, N163A

Biological target: α-actinin (human (endogenous in SK-N-AS))
Assay: co-IP; IP of α-actinin with mouse monoclonal MAB1682 from whole cell lysates of SK-N-AS transfectants expressing ICAM-2 WT or a gsv variant; immunoblots for α-actinin, ICAM-2 (AF244) and actin; qualitative

Binder	binding
B1	binds
B2	binds
B3	binds
B4	binds
B5	binds
